Laboratory results: PubChem BioAssay AID1259405 (NCATS, 2018)

Screen: 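Knock-downs that lift recombinant protein yield in hamster ovary cells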 (primary screen)
System: Chinese hamster CHO-K1 ovary cells with stable secreted eGFP expression
Reagent: single siRNA against mouse genes, 0.8 pmol siRNA per well (2 µl of 400 nM stock)
Timing: 3 days
Measured: 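Percent of the per-plate non-targeting control median for intracellular GFP per well by laser scanning cytometry and for cell viability by ATP luminescence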
Reading the numbers: GFP, % of control: higher = more GFP per well, higher productivity; viability (ATP), % of control: higher = more viable cells (more ATP)
Call rule: 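Called active when intracellular GFP, relative to negative control, is at or above 120%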
Here is an unselected part of about 50,000 reagents. In the full data, about 4,000 (8%) got an active call. 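Mouse siRNA library applied to hamster cells; one well for each siRNA.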 Reagents against one gene are numbered here. Reagent sequences are not shown.

The opening 2 records, ahead of the listing:
Gm4736 (GeneID 100502592) #1: GFP, % of control = 78.1; viability (ATP), % of control = 37.6; Call = inactive
Gm4736 (GeneID 100502592) #2: GFP, % of control = 87.8; viability (ATP), % of control = 50.2; Call = inactive

Main list, repeating the preview:
Gm4736 (GeneID 100502592) #1: GFP, % of control = 78.1; viability (ATP), % of control = 37.6; Call = inactive
Gm4736 (GeneID 100502592) #2: GFP, % of control = 87.8; viability (ATP), % of control = 50.2; Call = inactive
Gm4736 (GeneID 100502592) #3: GFP, % of control = 68.5; viability (ATP), % of control = 39.9; Call = inactive
Dok3 (GeneID 27261) #1: GFP, % of control = 67.3; viability (ATP), % of control = 78.7; Call = inactive
Dok3 (GeneID 27261) #2: GFP, % of control = 99.6; viability (ATP), % of control = 65.1; Call = inactive
Dok3 (GeneID 27261) #3: GFP, % of control = 32.2; viability (ATP), % of control = 44.4; Call = inactive
Ccnb2 (GeneID 12442) #1: GFP, % of control = 104; viability (ATP), % of control = 70.3; Call = inactive
Ccnb2 (GeneID 12442) #2: GFP, % of control = 111; viability (ATP), % of control = 92.6; Call = inactive
Prokr2 (GeneID 246313) #1: GFP, % of control = 66.9; viability (ATP), % of control = 69.6; Call = inactive
Prokr2 (GeneID 246313) #2: GFP, % of control = 58; viability (ATP), % of control = 59.1; Call = inactive
Prokr2 (GeneID 246313) #3: GFP, % of control = 70.4; viability (ATP), % of control = 70.7; Call = inactive
Mpzl3 (GeneID 319742) #1: GFP, % of control = 60; viability (ATP), % of control = 50.3; Call = inactive
Mpzl3 (GeneID 319742) #2: GFP, % of control = 85; viability (ATP), % of control = 58.8; Call = inactive
Mpzl3 (GeneID 319742) #3: GFP, % of control = 55.6; viability (ATP), % of control = 67.2; Call = inactive
Irs1 (GeneID 16367) #1: GFP, % of control = 67.5; viability (ATP), % of control = 81.6; Call = inactive
Irs1 (GeneID 16367) #2: GFP, % of control = 80.6; viability (ATP), % of control = 53.5; Call = inactive
Irs1 (GeneID 16367) #3: GFP, % of control = 86.4; viability (ATP), % of control = 91.9; Call = inactive
Fermt1 (GeneID 241639) #1: GFP, % of control = 108; viability (ATP), % of control = 66.4; Call = inactive
Fermt1 (GeneID 241639) #2: GFP, % of control = 102; viability (ATP), % of control = 94.8; Call = inactive
Fermt1 (GeneID 241639) #3: GFP, % of control = 127; viability (ATP), % of control = 139; Call = active
Ift54 (GeneID 74019) #1: GFP, % of control = 99.3; viability (ATP), % of control = 75.9; Call = inactive
Ift54 (GeneID 74019) #2: GFP, % of control = 65.4; viability (ATP), % of control = 68.3; Call = inactive
Ift54 (GeneID 74019) #3: GFP, % of control = 92.6; viability (ATP), % of control = 64.5; Call = inactive
Loricrin (GeneID 16939) #1: GFP, % of control = 58.1; viability (ATP), % of control = 67.3; Call = inactive
Loricrin (GeneID 16939) #2: GFP, % of control = 76.7; viability (ATP), % of control = 60.2; Call = inactive
Loricrin (GeneID 16939) #3: GFP, % of control = 92.2; viability (ATP), % of control = 63; Call = inactive
Sod2 (GeneID 20656) #1: GFP, % of control = 63.7; viability (ATP), % of control = 41; Call = inactive
Sod2 (GeneID 20656) #2: GFP, % of control = 104; viability (ATP), % of control = 51.9; Call = inactive
Sod2 (GeneID 20656) #3: GFP, % of control = 40; viability (ATP), % of control = 51.9; Call = inactive
Ppil3 (GeneID 70225) #1: GFP, % of control = 107; viability (ATP), % of control = 68.6; Call = inactive
Ppil3 (GeneID 70225) #2: GFP, % of control = 77.8; viability (ATP), % of control = 79.4; Call = inactive
Ppil3 (GeneID 70225) #3: GFP, % of control = 65.3; viability (ATP), % of control = 31; Call = inactive
Gata2 (GeneID 14461) #1: GFP, % of control = 53.1; viability (ATP), % of control = 58.9; Call = inactive
Gata2 (GeneID 14461) #2: GFP, % of control = 66.9; viability (ATP), % of control = 63; Call = inactive
Epsti1 (GeneID 108670) #1: GFP, % of control = 54.9; viability (ATP), % of control = 52.2; Call = inactive
Epsti1 (GeneID 108670) #2: GFP, % of control = 43.1; viability (ATP), % of control = 44.5; Call = inactive
Epsti1 (GeneID 108670) #3: GFP, % of control = 52; viability (ATP), % of control = 105; Call = inactive
P4ha1 (GeneID 18451) #1: GFP, % of control = 71.9; viability (ATP), % of control = 89.1; Call = inactive
P4ha1 (GeneID 18451) #2: GFP, % of control = 65.1; viability (ATP), % of control = 65.7; Call = inactive
P4ha1 (GeneID 18451) #3: GFP, % of control = 100; viability (ATP), % of control = 96.7; Call = inactive
